The list shows only some results of the screen, not a fair sample: it is rich in T/C values a quarter to a half above the control, in often repeated tests (any T/C) and in doses without a T/C. Further doses and runs are listed elsewhere. T/C: endpoint of the treated group in % of that of the vehicle group. Some doses have a count of surviving animals in place of a T/C: the source holds a T/C of zero for them, seemingly a mark for toxic or unscored doses. Some doses without a T/C left all or most animals alive at the check, yet need not have been tolerated: the source hardly ever lists a survival T/C far under the control, and the zero likely stands for such cases as well. Survivors were counted at the toxicity check, usually on the fifth day, unless a day is given; later deaths do not show. Schedule codes are those of the source, read here as Q, the interval in days (D) or hours (H), X, the number of doses. Where survival is the endpoint, this PubChem deposit counts one and a half times the control or more as active, and values a quarter to a half above the control carry no call in these data; other NCI protocols may use other cut-offs. Some doses were run more than once; their values stand side by side, smallest first.
System: BDF1 mice, P388 leukemia ip, median survival T/C
Test: NCI In Vivo Anticancer Drug Screen. Data for tumor model P388 Leukemia (intraperitoneal) in B6D2F1 (BDF1) mice
Settings: T/C endpoint: median survival time, higher T/C = longer survival
Procedure, shortened: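 Transplantable tumour in mice; compound vs vehicle dosing; survival scored; ratio of treated to control reported.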

[1] = dose: 25.0 mg/kg/injection, schedule: Q01DX009 (ip), vehicle: saline with Tween-80
[2] = dose: 400.0 mg/kg/injection, schedule: Q04DX003 (ip), vehicle: Klucel (hydroxypropylcellulose) (HPC)
[3] = dose: 100.0 mg/kg/injection, schedule: Q01DX009 (ip), vehicle: saline with Tween-80
[4] = dose: 200.0 mg/kg/injection, schedule: Q01DX009 (ip), vehicle: saline with Tween-80
[5] = dose: 100.0 mg/kg/injection, schedule: Q01DX001 (ip), vehicle: saline with Tween-80
[6] = dose: 200.0 mg/kg/injection, schedule: Q01DX009 (ip), vehicle: Klucel (hydroxypropylcellulose) (HPC)

CCC1/C=C/C=C/CC(C)C(O)C(C)(O)C(=O)C(C)C(O)C(C)C(=O)C(C)C(O)C(C)/C=C/C(=O)OC2C(C)C(CC1)OC1(OC(CC(C)O)C(C)CC1=O)C2C (stereo not given) (tested in a mixture with another compound)
survivor count (dose: 1.2 mg/kg/injection, schedule: Q01DX010 (ip), vehicle: saline): 1 of 6 | survivor count (dose: 2.4 mg/kg/injection, schedule: Q01DX010 (ip), vehicle: saline): 0 of 6 | survivor count (dose: 2.5 mg/kg/injection, schedule: Q01DX010 (ip), vehicle: carboxymethylcellulose (CMC)): 1 of 6 | survivor count (dose: 4.8 mg/kg/injection, schedule: Q01DX010 (ip), vehicle: saline): 0 of 6 | survivor count (dose: 5.0 mg/kg/injection, schedule: Q01DX010 (ip), vehicle: carboxymethylcellulose (CMC)): 2 of 6 | survivor count (dose: 10.0 mg/kg/injection, schedule: Q01DX009 (ip), vehicle: saline): 3 of 6 | survivor count (dose: 10.0 mg/kg/injection, schedule: Q01DX010 (ip), vehicle: carboxymethylcellulose (CMC)): 1 of 6 | survivor count (dose: 20.0 mg/kg/injection, schedule: Q01DX010 (ip), vehicle: carboxymethylcellulose (CMC)): 0 of 6 | T/C (dose: 75.0 micrograms/kg/injection, schedule: Q01DX010 (ip), vehicle: saline): 125 % of control

O=C1C2CC=CCC2C(=O)N1SC(Cl)(Cl)Cl (stereo not given)
survivor count [1]: 2 of 6

NC(CCSCc1ccc(N(CCCl)CCCl)cc1)C(=O)O (stereo not given)
T/C (dose: 2.6 mg/kg/injection, schedule: Q04DX003 (ip), vehicle: saline with Tween-80): 140 % of control | T/C (dose: 4.0 mg/kg/injection, schedule: Q04DX003 (ip), vehicle: saline with Tween-80): 145 % of control | T/C (dose: 25.0 mg/kg/injection, schedule: Q01DX009 (ip), vehicle: Klucel (hydroxypropylcellulose) (HPC)): 135 % of control | survivor count (dose: 100.0 mg/kg/injection, schedule: Q01DX009 (ip), vehicle: Klucel (hydroxypropylcellulose) (HPC)): 6 of 6 | T/C (dose: 200.0 mg/kg/injection, schedule: Q04DX003 (ip), vehicle: Klucel (hydroxypropylcellulose) (HPC)): 129 % of control | survivor count [2]: 6 of 6 | T/C (dose: 750.0 micrograms/kg/injection, schedule: Q04DX003 (ip), vehicle: saline with Tween-80): 135 % of control | T/C (dose: 1500.0 micrograms/kg/injection, schedule: Q04DX003 (ip), vehicle: saline with Tween-80): 145 % of control

[Cl][Al]([Cl])[Cl]
survivor count [3]: 3 of 6 | survivor count [4]: 1 of 6 | survivor count (dose: 400.0 mg/kg/injection, schedule: Q01DX009 (ip), vehicle: saline with Tween-80): 1 of 6

Cn1c(Cc2ccccc2)c([N+](=O)[O-])c(=O)n(C)c1=O
survivor count [4]: 2 of 6

[N-]=[N+]=CC(=O)OCC(N)C(=O)O (stereo not given)
survivor count (dose: 400.0 mg/kg/injection, schedule: Q01DX009 (ip), vehicle: saline): 5 of 6

CC[CH2][Pb]([Cl])([CH2]CC)[CH2]CC
survivor count (dose: 12.5 mg/kg/injection, schedule: Q01DX009 (ip), vehicle: DMSO): 0 of 6 | survivor count (dose: 25.0 mg/kg/injection, schedule: Q01DX009 (ip), vehicle: DMSO): 0 of 6 | survivor count (dose: 50.0 mg/kg/injection, schedule: Q01DX009 (ip), vehicle: DMSO): 0 of 6

COc1ccc2nc3cc(Cl)ccc3c(Nc3ccc(O)c(CN(CCCl)CCCl)c3)c2c1
survivor count (dose: 0.2 mg/kg/injection, schedule: Q01DX009 (ip), vehicle: saline with Tween-80): 6 of 6 | T/C (dose: 0.5 mg/kg/injection, schedule: Q04DX003 (ip), vehicle: saline): 131 and 140 % of control | T/C (dose: 0.75 mg/kg/injection, schedule: Q04DX003 (ip), vehicle: saline): 145 % of control | T/C (dose: 0.88 mg/kg/injection, schedule: Q04DX003 (ip), vehicle: saline): 133 % of control | survivor count (dose: 3.75 mg/kg/injection, schedule: Q04DX003 (ip), vehicle: saline): 5 of 6 | survivor count (dose: 7.5 mg/kg/injection, schedule: Q04DX003 (ip), vehicle: saline): 3 of 6 | survivor count (dose: 15.0 mg/kg/injection, schedule: Q04DX003 (ip), vehicle: saline): 0 of 6

CCN=C1N[N+]2=CCCCC2S1 (stereo not given)
T/C (dose: 70.0 mg/kg/injection, schedule: Q01DX009 (ip), vehicle: saline): 133 % of control

C[n+]1c2ccccc2nc2c(N)cc(N)cc21
T/C (dose: 11.0 mg/kg/injection, schedule: Q01DX009 (ip), vehicle: saline with Tween-80): 126 and 144 % of control | T/C (dose: 17.0 mg/kg/injection, schedule: Q01DX009 (ip), vehicle: saline with Tween-80): 133 % of control | T/C (dose: 26.0 mg/kg/injection, schedule: Q01DX009 (ip), vehicle: saline with Tween-80): 140 % of control | T/C (dose: 40.0 mg/kg/injection, schedule: Q01DX009 (ip), vehicle: saline with Tween-80): 145 % of control | survivor count (dose: 60.0 mg/kg/injection, schedule: Q01DX009 (ip), vehicle: saline with Tween-80): 6 of 6 | survivor count (dose: 62.0 mg/kg/injection, schedule: Q01DX009 (ip), vehicle: saline with Tween-80): 3 of 6 | survivor count (dose: 62.0 mg/kg/injection, schedule: Q01DX009 (ip), vehicle: water): 3 of 6 | survivor count (dose: 93.0 mg/kg/injection, schedule: Q01DX009 (ip), vehicle: saline with Tween-80): 0 of 6 | survivor count (dose: 93.0 mg/kg/injection, schedule: Q01DX009 (ip), vehicle: water): 0 of 6

COc1ccc(CC2C(=O)NC(C)C(=O)N(C)C3C(=O)N(C)C(Cc4ccc(O)c(c4)Oc4ccc(cc4)C3O)C(=O)NC(C)C(=O)NC(C)C(=O)N2C)cc1 (stereo not given) (tested in a mixture with another compound)
survivor count (dose: 4.0 mg/kg/injection, schedule: Q01DX009 (ip), vehicle: alcohol): 6 of 6 | survivor count (dose: 4.0 mg/kg/injection, schedule: Q01DX009 (ip), vehicle: carboxymethylcellulose (CMC)): 3 of 6

c1ccc(CCN2CCC3(CC2)COCc2ccccc23)cc1
survivor count [5]: 3 of 6

ClCCN(CCCN(CCCl)c1ccccc1)c1ccccc1
T/C [5]: 137 % of control | T/C (dose: 200.0 mg/kg/injection, schedule: Q01DX001 (ip), vehicle: saline + alcohol): 126 % of control

O=c1[nH]cc(CCc2ccccc2)c(=O)[nH]1
survivor count (dose: 200.0 mg/kg/injection, schedule: Q01DX001 (ip), vehicle: Klucel (hydroxypropylcellulose) (HPC)): 6 of 6 | survivor count [2]: 6 of 6

O=Cc1ccccc1B(O)O
T/C [6]: 136 % of control | survivor count [6]: 0 of 6

CC(C)(C)CC(C)(C)c1ccc(O)cc1O
survivor count [3]: 6 of 6

Nc1cc(N)cc([N+](=O)[O-])c1
survivor count (dose: 25.0 mg/kg/injection, schedule: Q01DX009 (ip), vehicle: saline): 5 of 6 | survivor count (dose: 50.0 mg/kg/injection, schedule: Q04DX003 (ip), vehicle: saline): 3 of 6

CO[C@H]1C[C@H](O[C@H]2CC[C@]3(C=O)[C@H]4CC[C@]5(C)[C@@H](C6=CC(=O)OC6)CC[C@]5(O)[C@@H]4CC[C@]3(O)C2)O[C@H](C)[C@H]1O
survivor count (dose: 10.0 mg/kg/injection, schedule: Q01DX010 (ip), vehicle: steroid suspending solution): 3 of 6 | survivor count (dose: 20.0 mg/kg/injection, schedule: Q01DX010 (ip), vehicle: steroid suspending solution): 0 of 6

CC1CCC2(OC1)OC1C(O)C3C4CCC5CC(OC6OC(CO)C(OC7OC(CO)C(O)C(OC8OCC(O)C(O)C8O)C7OC7OC(CO)C(O)C(OC8OC(CO)C(O)C(O)C8O)C7O)C(O)C6O)C(O)CC5(C)C4CCC3(C)C1C2C (stereo not given)
survivor count (dose: 100.0 mg/kg/injection, schedule: Q04DX003 (ip), vehicle: saline with Tween-80): 1 of 6 | survivor count (dose: 200.0 mg/kg/injection, schedule: Q04DX003 (ip), vehicle: saline with Tween-80): 0 of 6 | survivor count (dose: 400.0 mg/kg/injection, schedule: Q04DX003 (ip), vehicle: saline with Tween-80): 0 of 6

O=C1NC(c2ccccc2)N=C2Oc3ccccc3C=C12 (stereo not given)
survivor count [1]: 5 of 6 | survivor count (dose: 50.0 mg/kg/injection, schedule: Q01DX009 (ip), vehicle: saline with Tween-80): 3 of 6 | survivor count [3]: 2 of 6

Cn1c(CCCC(=O)O)nc2cc(N(CCCl)CCCl)ccc21
T/C (dose: 2.8 mg/kg/injection, schedule: Q04DX003 (ip), vehicle: saline): 125 % of control | T/C (dose: 20.0 mg/kg/injection, schedule: Q01DX009 (ip), vehicle: saline): 125 % of control

— PubChem BioAssay AID328 (DTP/NCI, 2004)
